Results are given in words; binding and its absence hold for the method and conditions named. In cells and extracts the contact can be indirect. Some entries that bind do so weakly or less than the wild type. Sequences can lack the tags named with a protein.

Amino acid sequences for entries named in this document (tags omitted).
UniProt P09216: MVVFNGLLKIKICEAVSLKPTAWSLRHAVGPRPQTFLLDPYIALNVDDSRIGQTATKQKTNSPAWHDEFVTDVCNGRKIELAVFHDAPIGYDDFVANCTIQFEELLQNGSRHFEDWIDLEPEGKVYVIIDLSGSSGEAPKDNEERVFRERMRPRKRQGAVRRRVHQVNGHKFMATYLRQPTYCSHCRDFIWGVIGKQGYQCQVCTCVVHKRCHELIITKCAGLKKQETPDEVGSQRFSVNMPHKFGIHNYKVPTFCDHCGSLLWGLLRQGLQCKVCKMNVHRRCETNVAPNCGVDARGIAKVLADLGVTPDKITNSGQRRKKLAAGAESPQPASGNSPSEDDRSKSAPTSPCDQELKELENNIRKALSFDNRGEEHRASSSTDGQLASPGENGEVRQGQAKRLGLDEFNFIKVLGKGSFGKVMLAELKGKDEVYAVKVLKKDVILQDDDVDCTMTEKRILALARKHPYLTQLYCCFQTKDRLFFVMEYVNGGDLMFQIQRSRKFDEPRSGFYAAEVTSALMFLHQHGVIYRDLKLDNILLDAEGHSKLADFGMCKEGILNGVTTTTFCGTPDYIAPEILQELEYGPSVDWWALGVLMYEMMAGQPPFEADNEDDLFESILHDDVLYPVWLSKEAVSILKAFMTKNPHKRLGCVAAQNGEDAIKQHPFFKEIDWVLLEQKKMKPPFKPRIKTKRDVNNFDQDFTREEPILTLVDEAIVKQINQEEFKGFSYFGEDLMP

This note sets out measurements from publication PMC2906515.

The target of this test is T1, MBP-TRPV4-Ct (C-terminal cytoplasmic domain of TRPV4 fused with MBP) (UniProt Q9ERZ8).
T1 sequence: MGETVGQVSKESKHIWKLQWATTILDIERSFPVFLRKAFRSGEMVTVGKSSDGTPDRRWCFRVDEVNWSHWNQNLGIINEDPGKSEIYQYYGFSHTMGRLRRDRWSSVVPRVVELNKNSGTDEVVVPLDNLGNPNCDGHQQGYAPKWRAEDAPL
Briefly: pull-down; MBP fusion protein on amylose resin incubated with soluble porcine brain extract or soluble F11 extract (1 mg/ml), 1 hour at RT, PEM-S buffer (50 mM PIPES pH 6.8, 100 mM NaCl, 1 mM EGTA, 0.2 mM MgCl2), in the presence or absence of Ca2+; eluted with maltose; immunoblot; only the target purified.

For “PKCε, endogenous in F11 cells (from UniProt P09216 1-737) (enzyme)”, the binding result is “binds”.
